In patent US20210309718A1:
No constants are given. Whether binding was seen depends on the method and setting. Some results given as binding are weak or reduced against the parent protein; the word gives no strength.

Amino acid sequences for entries named in this document (tags omitted). A change or cut given only in a name is not applied to a line headed by its entry.
UniProt P09038: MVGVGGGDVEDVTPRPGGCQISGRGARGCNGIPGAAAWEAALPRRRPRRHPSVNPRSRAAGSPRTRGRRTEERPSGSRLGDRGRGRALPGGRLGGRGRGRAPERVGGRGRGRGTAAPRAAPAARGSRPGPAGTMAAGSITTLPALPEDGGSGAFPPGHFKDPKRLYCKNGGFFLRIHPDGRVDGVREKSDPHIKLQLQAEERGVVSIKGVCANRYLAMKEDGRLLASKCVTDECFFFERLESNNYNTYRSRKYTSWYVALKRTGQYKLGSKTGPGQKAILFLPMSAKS

What was measured:
human FGF2 (human) [1] = molecular target: human FGF2 (human) (UniProt P09038); experiment: SPR (BIACORE T200), hFGF2 immobilised on CM5 chip, sFGFR3 polypeptide as analyte, five successive injections; concentrations not given
human FGF2 (human) [2] = molecular target: human FGF2 (human) (UniProt P09038); experiment: SPR, FGF2 binding activity and Kd compared for HEK 293 and CHO material

| binding (human FGF2 (human) [1]) | binding (human FGF2 (human) [2]) | Binder |
| --- | --- | --- |
| binds | binds | sFGFR3_Del4-LK1-LK2 (receptor) ESLGTEQRVVGRAAEVPGPEPGQQEQLVFGSGDAVELSCPPPGGGPMGPTVWVKDGTGLVPSERVLVGPQRLQVLNASHEDSGAYSCRQRLTQRVLCHFSVRVTDAPSSGDDEDGEDEAEDTGVDTGAPYWTRPERMDKKLLAVPAANTVRFRCPAAGNPTPSISWLKNGREFRGEHRIGGIKLRHQQWSLVMESVVPSDRGNYTCVVENKFGSIRQTYTLDVLERSPHRPILQAGLPANQTAVLGSDVEFHCKVYSDAQPHIQWLKHVEVNGSKVGPDGTPYVTVLKVSLESNASMSSNTSGSGSGSGSGSGSGSVVFPYFPRLGRYNLNFHEAQQACLDQDAVIASFDQLYDAWRGGLDWCNAGWLSDGSVQYPITKPREPCGGQNTVPGVRNYGFWDKDKSRYDVFCFTSNFNGRFYYLIHPTKLTYDEAVQACLNDGAQIAKVGQIFAAWKILGYDRCDAGWLADGSVRYPISRPRRRCSPTEAAVRFVGFPDKKHKLYGVYCFRAYN |
| binds | – | sFGFR3_Del4-LK1-LK2-C253S (receptor) soluble receptor polypeptide: ESLGTEQRVVGRAAEVPGPEPGQQEQLVFGSGDAVELSCPPPGGGPMGPTVWVKDGTGLVPSERVLVGPQRLQVLNASHEDSGAYSCRQRLTQRVLCHFSVRVTDAPSSGDDEDGEDEAEDTGVDTGAPYWTRPERMDKKLLAVPAANTVRFRCPAAGNPTPSISWLKNGREFRGEHRIGGIKLRHQQWSLVMESVVPSDRGNYTCVVENKFGSIRQTYTLDVLERSPHRPILQAGLPANQTAVLGSDVEFHSKVYSDAQPHIQWLKHVEVNGSKVGPDGTPYVTVLKVSLESNASMSSNTSGSGSGSGSGSGSGSVVFPYFPRLGRYNLNFHEAQQACLDQDAVIASFDQLYDAWRGGLDWCNAGWLSDGSVQYPITKPREPCGGQNTVPGVRNYGFWDKDKSRYDVFCFTSNFNGRFYYLIHPTKLTYDEAVQACLNDGAQIAKVGQIFAAWKILGYDRCDAGWLADGSVRYPISRPRRRCSPTEAAVRFVGFPDKKHKLYGVYCFRAYN |
| binds | – | sFGFR3_Del4-LK1-LK2-D3 (receptor) soluble receptor polypeptide: ESLGTEQRVVGRAAEVPGPEPGQQEQLVFGSGDAVELSCPPPGGGPMGPTVWVKDGTGLVPSERVLVGPQRLQVLNASHEDSGAYSCRQRLTQRVLCHFSVRVTDAPSSGDDEDGEDEAEDTGVDTGAPYWTRPERMDKKLLAVPAANTVRFRCPAAGNPTPSISWLKNGREFRGEHRIGGIKLRHQQWSLVMESVVPSDRGNYTCVVENKFGSIRQTYTLDVLERSPHRPILQAGLPANQTAVLGSDVEFHCKVYSDAQPHIQWLKHVEVNGSKVGPDGTPYVTVLKTAGANTTDKELEVLSLHNVTFEDAGEYTCLAGNSIGFSHHSAWLVVLPVSLESNASMSSNTSGSGSGSGSGSGSGSVVFPYFPRLGRYNLNFHEAQQACLDQDAVIASFDQLYDAWRGGLDWCNAGWLSDGSVQYPITKPREPCGGQNTVPGVRNYGFWDKDKSRYDVFCFTSNFNGRFYYLIHPTKLTYDEAVQACLNDGAQIAKVGQIFAAWKILGYDRCDAGWLADGSVRYPISRPRRRCSPTEAAVRFVGFPDKKHKLYGVYCFRAYN |
